Some entries share one result that the patent states for a list of compounds. At least one structure is not confirmed: it was looked up by name or label, or the drawing left a doubt.
Experiment: solubility of immunosuppressants to methanol
Type: physicochemical
Details: drug not stably dissolved unless methanol at 50% or higher is present

| Structure (SMILES) | methanol concentration needed for the drug to be stably dissolved | methanol concentration needed for the drug to be stably dissolved (listed as Evelorimus) |
| --- | --- | --- |
| CO[C@H]1C[C@@H]2CC[C@@H](C)[C@@](O)(O2)C(=O)C(=O)N2CCCC[C@H]2C(=O)O[C@H]([C@H](C)C[C@@H]2CC[C@@H](OCCO)[C@H](OC)C2)CC(=O)[C@H](C)/C=C(\C)[C@@H](O)[C@@H](OC)C(=O)[C@H](C)C[C@H](C)/C=C/C=C/C=C/1C [Everolimus] | ≥ 50% | at least 50% |
| CO[C@H]1C[C@@H]2CC[C@@H](C)[C@@](O)(O2)C(=O)C(=O)N2CCCC[C@H]2C(=O)O[C@H]([C@H](C)C[C@@H]2CC[C@@H](O)[C@H](OC)C2)CC(=O)[C@H](C)/C=C(\C)[C@@H](O)[C@@H](OC)C(=O)[C@H](C)C[C@H](C)/C=C/C=C/C=C/1C [sirolimus] | ≥ 50% |  |
| C=CC[C@@H]1/C=C(\C)C[C@H](C)C[C@H](OC)[C@H]2O[C@@](O)(C(=O)C(=O)N3CCCC[C@H]3C(=O)O[C@H](/C(C)=C/[C@@H]3CC[C@@H](O)[C@H](OC)C3)[C@H](C)[C@@H](O)CC1=O)[C@H](C)C[C@@H]2OC [tacrolimus] | ≥ 50% |  |
